Some of the results follow. Shown are side measurements of this screen, not its main read-out; they come without a call. The list favours compounds with an active or inconclusive main result. Words in brackets tell the shape of the fitted curve; partial curves, single points and poor fits give uncertain potencies.
Assay: qHTS Assay for Modulators of Lamin A Splicing
Settings: HeLa LMNA splicing GFP/RFP minigene ratio, 48 h
Summary of the method: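 S3 HeLa stable clones carrying a lamin A-EGFP splicing minigene plus DsRed2 were seeded at 600 cells/well in Opti-MEM with 2% FBS, pin-dosed and incubated 48 h at 37°C. Acumen cytometry (488 nm) gave the GFP/RFP total-intensity ratio.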

[1] = measured here: GFP splicing reporter channel
[2] = measured here: RFP viability control channel

In the case of CC(=O)c1c(C)oc2c1C(=O)c1ccccc1C2=O, the AC50 [1] is reported as 3.16 µM [falling, single point] and the AC50 [2] is reported as 31.6 µM [rising, single point].

For CN(C)CC[C@@H](c1ccc(Br)cc1)c1ccccn1, the AC50 [1] was 35.5 µM [falling, single point].

In the case of O=C(Nc1ccc(Cc2ccncc2)cc1)c1ccc(Br)o1, the AC50 [2] is reported as 14.1 µM [rising, single point].

In the case of NC(=S)N/N=C/c1ccc(-c2ccccc2)o1, the AC50 [2] is reported as 35.5 µM [falling, single point].

In the case of COc1ccc(-c2c(C(C)=O)c(C)n(C)c2C)cc1, the AC50 [1] is reported as 10 µM [rising, partial curve, poor fit] and the AC50 [2] is reported as 22.4 µM [rising, single point].

For O=C(O)CCc1ccc(-c2ccccc2)n1NC(=O)c1cccs1, the AC50 [2] was 31.6 µM [rising, single point].

In the case of CCN(CC(=O)NC1CCS(=O)(=O)C1)C(=O)COc1ccccc1-c1ccccc1 (configuration not stated), the AC50 [1] is reported as 17.8 µM [rising, single point].

For Cc1[nH]c2ccccc2c1/C=N/Nc1nc(Nc2ccc(F)cc2)nc(N2CCOCC2)n1, the AC50 [2] was 2 µM [rising, full curve].

With O=C(CCN1C(=O)C2C3CCC(C3)C2C1=O)Nc1ccccc1C(F)(F)F (configuration not stated) the AC50 [1] was 0.02 µM [falling, full curve, poor fit].

In the case of Cc1coc2c(O)cc3c(c12)OC1(N2CCCCC2)C(=O)NCCCC31 (configuration not stated), the AC50 [2] is reported as 8.91 µM [rising, single point].

In the case of Cn1c(CCN2CCCCC2)nc2cc(NS(=O)(=O)c3ccccc3)ccc21, the AC50 [2] is reported as 20 µM [rising, single point].

For CN(c1ccccc1)S(=O)(=O)c1cccc(NC(=O)CSc2ncn[nH]2)c1, the AC50 [2] was 8.91 µM [rising, partial curve, poor fit].

With O=C1c2ccccc2-c2onc3ccc(NCCCn4ccnc4)c1c23 the AC50 [1] was 14.1 µM [rising, single point] and the AC50 [2] was 25.1 µM [rising, single point].

With O=C(Nc1ccncc1)c1ccc(NS(=O)(=O)c2cccc(F)c2)cc1 the AC50 [1] was 11.2 µM [rising, partial curve] and the AC50 [2] was 15.8 µM [rising, partial curve].

With O=C(O)CCn1cc(/C=C\C(=O)c2ccc(Cl)cc2)c(-c2cccc(Br)c2)n1 the AC50 [1] was 35.5 µM [falling, single point] and the AC50 [2] was 2.51 µM [rising, partial curve].

In the case of Cc1cc(Nc2ccccc2C)nc(-n2nc(C)cc2C)n1, the AC50 [1] is reported as 0.708 µM [rising, single point].

For COc1cc2c(cc1NC(=O)CSc1cccc[n+]1[O-])oc1ccccc12, the AC50 [1] was 12.6 µM [rising, single point] and the AC50 [2] was 14.1 µM [rising, single point].

With COCCn1c(=O)c(CCc2ccccc2)nc2cnc(OCc3ccccc3)nc21 the AC50 [1] was 35.5 µM [falling, single point] and the AC50 [2] was 35.5 µM [falling, single point].

In the case of O=C(N/N=C/c1cc([N+](=O)[O-])ccc1O)/C(=C\c1cccs1)NC(=O)c1ccccc1, the AC50 [2] is reported as 28.2 µM [rising, single point].

For Cc1noc(C)c1-c1nccc(N2CCN(C)CC2)n1, the AC50 [1] was 17.8 µM [falling, single point].

With Cc1ccccc1NS(=O)(=O)c1ccc2[nH]cc(C(=O)NC(C)c3ccccc3)c(=O)c2c1 (configuration not stated) the AC50 [1] was 0.0398 µM [falling, full curve] and the AC50 [2] was 0.0501 µM [falling, full curve].

For COC(=O)[C@@]1(Cc2ccccc2)[C@@H]2C(=CC(=O)[C@H]2CC(=O)C(=O)N(C)C)CN1C(=O)c1ccccc1, the AC50 [2] was 12.6 µM [falling, partial curve, poor fit].

For CCOC(=O)N1CCN(S(=O)(=O)c2ccc(C)c(C)c2C)CC1, the AC50 [2] was 11.2 µM [rising, partial curve, poor fit].

With O=C(Nc1ccc(-c2noc(CCc3ccccc3)n2)cc1)c1cccnc1 the AC50 [2] was 35.5 µM [rising, single point].

For CCNc1ncc2nc(-c3ccc(F)cc3)c(=O)n(CCc3ccccc3)c2n1, the AC50 [1] was 14.1 µM [falling, partial curve].

For COc1cc(Cl)c(C)cc1NC(C)C(=O)Nc1cc(C(F)(F)F)ccc1N1CCOCC1 (configuration not stated), the AC50 [1] was 15.8 µM [rising, single point] and the AC50 [2] was 22.4 µM [rising, partial curve].

In the case of Cc1cccc(Nc2cc(C)c3c(O)cccc3n2)c1C, the AC50 [1] is reported as 3.55 µM [rising, full curve] and the AC50 [2] is reported as 11.2 µM [rising, partial curve].

For CCC(=O)N1CCN(c2ccccc2NC(=O)COc2cc(C)ccc2C(C)C)CC1, the AC50 [2] was 22.4 µM [rising, single point].

With CCN(CC)c1ccc(Nc2nc(N3CCOCC3)c3ccccc3n2)cc1 the AC50 [1] was 15.8 µM [rising, single point] and the AC50 [2] was 12.6 µM [rising, partial curve].

In the case of C=C(C)C1CC=C(C(=O)O)CC1 (configuration not stated), the AC50 [2] is reported as 0.00447 µM [falling, full curve, poor fit].

With COc1ccc2cc(C3(C)NC(=O)NC3=O)ccc2c1 (configuration not stated) the AC50 [1] was 15.8 µM [falling, single point] and the AC50 [2] was 7.08 µM [falling, partial curve, poor fit].

With COc1ccc(-c2nc(C)c(CCNC(=O)C(=O)Nc3ccccc3C#N)s2)cc1OC the AC50 [2] was 20 µM [falling, single point].

With Cc1ccc(-c2cc(-c3ccc4c(c3)OCO4)c(C#N)c(N)n2)o1 the AC50 [1] was 14.1 µM [rising, single point].

In the case of COc1ccc(C(=O)CSc2n[nH]c(=O)[nH]c2=O)cc1, the AC50 [1] is reported as 28.2 µM [falling, partial curve] and the AC50 [2] is reported as 10 µM [falling, partial curve].

For CC1=C(c2ccc(F)cc2)S(=O)(=O)NC1=NCc1ccccc1F, the AC50 [1] was 0.562 µM [rising, full curve, poor fit].

In the case of NNc1nc2c(Cl)cccc2s1, the AC50 [2] is reported as 12.6 µM [rising, partial curve].

For Cc1cc(C)cc(Nc2cc(C(=O)NCCCN(Cc3ccccc3)C(C)C)c3ccccc3n2)c1, the AC50 [1] was 28.2 µM [falling, single point] and the AC50 [2] was 35.5 µM [falling, single point].

With O=S(=O)(NCCc1ccncc1)c1ccc(S(=O)(=O)N2CCCCCC2)cc1 the AC50 [1] was 14.1 µM [rising, single point] and the AC50 [2] was 14.1 µM [rising, single point].

In the case of CCn1c(C)nc2cc(C(=O)NNC(=S)NC(=O)c3ccccc3)ccc21, the AC50 [1] is reported as 8.91 µM [falling, partial curve, poor fit].

For Cc1ccc(Sc2ccc([N+](=O)[O-])cc2[N+](=O)[O-])nc1, the AC50 [2] was 31.6 µM [rising, single point].

With COc1ccc(CCNC(=S)Nc2cccc(C)c2C)cc1 the AC50 [2] was 35.5 µM [rising, single point].

In the case of CCC(C)(C)n1nnnc1C(c1cc2ccc(OC)cc2[nH]c1=O)N1CCc2ccccc21 (configuration not stated), the AC50 [1] is reported as 10 µM [rising, partial curve].

With O=c1[nH]c2cc(Cl)c(Cl)cc2[nH]c1=O the AC50 [1] was 5.62 µM [falling, partial curve, poor fit] and the AC50 [2] was 11.2 µM [falling, partial curve].

In the case of CC1=CC(C)(C)NC(=S)N1c1ccccc1C, the AC50 [1] is reported as 5.62 µM [rising, single point].

In the case of Cc1nn(-c2ccccc2)c2ncc(C(=O)c3cc(Cl)ccc3O)cc12, the AC50 [1] is reported as 2.82 µM [rising, single point] and the AC50 [2] is reported as 35.5 µM [rising, single point].

With CCOC(=O)c1c(NC(=O)C2=C(C)NC(=S)NC2c2ccc(CC)cc2)sc(C)c1C (configuration not stated) the AC50 [1] was 10 µM [rising, partial curve] and the AC50 [2] was 12.6 µM [rising, single point].

With COc1cccc(/C=N/NC(=O)c2nc(-c3ccccc3)cc(-c3ccccc3)n2)c1O the AC50 [2] was 8.91 µM [rising, partial curve].

With Cc1ccc(C)c2sc(NC(=O)c3ccc(S(=O)(=O)N4CCCC4)cc3)nc12 the AC50 [2] was 5.62 µM [falling, full curve, poor fit].

With Cc1cc(-c2c(C)[nH]n(-c3ccc(Cl)cc3)c2=O)n[nH]1 the AC50 [1] was 15.8 µM [falling, partial curve] and the AC50 [2] was 28.2 µM [falling, single point].

With CCOc1cnc(-c2c(-c3c(Cl)cccc3Cl)noc2C)o1 the AC50 [2] was 31.6 µM [rising, single point].

For CCOc1ccc(CNC(=O)c2ccc3c(c2)nc2n3CCOC2)cc1, the AC50 [1] was 0.794 µM [rising, full curve, poor fit].

With CCOc1cc(/C=N/NC(=O)c2ccc(CN3CCOCC3)cc2)ccc1OCc1ccccc1 the AC50 [2] was 7.94 µM [rising, partial curve, poor fit].

With CCCOc1ccccc1N/C(=N/c1nc(C)cc(C)n1)NC(=O)COc1ccc(OC)cc1 the AC50 [1] was 31.6 µM [rising, single point] and the AC50 [2] was 35.5 µM [rising, single point].

With Cc1ccc(C(c2nnnn2C(C)(C)C)N(Cc2ccco2)Cc2cccs2)cc1 (configuration not stated) the AC50 [2] was 22.4 µM [rising, single point].

In the case of O=C(COc1cc(Cl)c(Cl)cc1Cl)Nc1ccncc1, the AC50 [2] is reported as 35.5 µM [rising, single point].

For CCOC(=O)c1c(-c2ccccc2Cl)csc1NC(=O)CSc1nc(C)cc(=O)[nH]1, the AC50 [1] was 11.2 µM [rising, partial curve, poor fit] and the AC50 [2] was 25.1 µM [rising, partial curve].
